Values of other authors, collected in EP3482756A1, “PHARMACEUTICAL COMPOSITION AND USE OF THE PHARMACEUTICAL COMPOSITION” (Lambdafin Sp. z o.o., priority 2017, dated 2019).

Conditions: patients with type 2 diabetes, primary prevention of ischemic heart disease

In the case of `CC(C)c1c(C(=O)Nc2ccccc2)c(-c2ccccc2)c(-c2ccc(F)cc2)n1CC[C@@H](O)C[C@@H](O)CC(=O)O` [atorvastatin], the “reduction of prevalence of the first-order endpoint (acute coronary syndromes, coronary revascularization or brain stroke)” value is given as 30%.
